PubChem BioAssay AID743454, Peter MacCallum Cancer Centre | 2014
The whole screen tested about 18,000 reagents; below is an unselected part. Over the whole deposit, 450 (2.5%) got an active call. 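Single biological run; no consistent viability z cut-off exists, so the class columns, not z-scores, define the calls.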

Assay: 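Genes whose loss kills vorinostat-resistant colon cancer cells under vorinostat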 (primary screen)
Cells: human HCT116-VR colon cancer cells, selected for vorinostat resistance
Reagent: siRNA pool against human genes, 40 nM siRNA pool
Timing: vorinostat for 24 h, read-out about 72 h after transfection
Treatment: vorinostat at 2.5 µM final
Measurement: 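Two measures, CellTiter-Fluor viability and luminescent caspase 3/7 activity, each as fold change against same-plate mock wells, mean of duplicates, then screen-wide robust z-score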
Scale: viability robust z-score: higher = more viable cells than screen typical; caspase robust z-score: higher = more caspase 3/7 activity than screen typical
Active means: 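a knock-down is a hit when classed RV1 or RV2 for lowered viability, or CA1 or CA2 for caspase activation; those lethal without drug were dropped; hits were retested singly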

no.	gene symbol	viability hit class	caspase hit class	viability robust z-score	caspase robust z-score	activity call
1	AATF (GeneID 26574)	no change	no change	-1.22	-0.8	inactive
2	SLC5A9 (GeneID 200010)	no change	no change	0.88	1.36	inactive
3	PITPNM3 (GeneID 83394)	no change	no change	-0.83	1.47	inactive
4	DARS2 (GeneID 55157)	no change	no change	0.2	-0.7	inactive
5	ACTR6 (GeneID 64431)	no change	no change	0.79	-0.45	inactive
6	OASL (GeneID 8638)	no change	no change	-1.33	1.08	inactive
7	NDRG1 (GeneID 10397)	no change	no change	1.1	1	inactive
8	BLOC1S4 (GeneID 55330)	no change	no change	0.02	0.5	inactive
9	LEKR1 (GeneID 389170)	no change	no change	-1.4	-0.6	inactive
10	NKRF (GeneID 55922)	no change	no change	0.65	-0.06	inactive

Taken from above.
NDRG1 (GeneID 10397), caspase robust z-score = 1
For “viability hit class”, BLOC1S4 (GeneID 55330) shows no change

Continued:
no.	gene symbol	viability hit class	caspase hit class	viability robust z-score	caspase robust z-score	activity call
11	ZNF205 (GeneID 7755)	no change	no change	0.08	0.87	inactive
12	RBBP4 (GeneID 5928)	no change	no change	-0.32	0.51	inactive
13	PNP (GeneID 4860)	no change	no change	0.07	-1.07	inactive
14	ZIC1 (GeneID 7545)	no change	no change	-0.4	0.74	inactive
15	VPS4B (GeneID 9525)	no change	no change	-0.42	0.54	inactive
16	KRT71 (GeneID 112802)	no change	no change	-0.57	-0.83	inactive
17	MYPOP (GeneID 339344)	no change	no change	0.12	3.55	inactive
18	NFIX (GeneID 4784)	no change	no change	-2.17	1.98	inactive
19	PRDM11 (GeneID 56981)	no change	no change	0.14	-0.94	inactive
20	CEACAM3 (GeneID 1084)	no change	no change	-1.4	-0.22	inactive
21	CNNM1 (GeneID 26507)	no change	no change	-0.39	3.7	inactive
22	COL26A1 (GeneID 136227)	no change	no change	0.16	-0.32	inactive
23	HOXB5 (GeneID 3215)	no change	no change	-0.68	-0.89	inactive
